# The supplement of paper PMC6411743
# Amino acid sequences for entries named in this document (tags omitted). A change or cut given only in a name is not applied to a line headed by its entry.
# UniProt Q86W74: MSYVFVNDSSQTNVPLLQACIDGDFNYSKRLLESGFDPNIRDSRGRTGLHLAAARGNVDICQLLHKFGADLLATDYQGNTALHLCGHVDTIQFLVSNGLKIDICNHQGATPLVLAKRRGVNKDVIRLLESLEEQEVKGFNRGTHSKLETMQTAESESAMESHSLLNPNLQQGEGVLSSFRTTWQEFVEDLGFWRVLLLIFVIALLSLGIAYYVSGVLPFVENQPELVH
# UniProt Q5VYK3, whole entry, looked up: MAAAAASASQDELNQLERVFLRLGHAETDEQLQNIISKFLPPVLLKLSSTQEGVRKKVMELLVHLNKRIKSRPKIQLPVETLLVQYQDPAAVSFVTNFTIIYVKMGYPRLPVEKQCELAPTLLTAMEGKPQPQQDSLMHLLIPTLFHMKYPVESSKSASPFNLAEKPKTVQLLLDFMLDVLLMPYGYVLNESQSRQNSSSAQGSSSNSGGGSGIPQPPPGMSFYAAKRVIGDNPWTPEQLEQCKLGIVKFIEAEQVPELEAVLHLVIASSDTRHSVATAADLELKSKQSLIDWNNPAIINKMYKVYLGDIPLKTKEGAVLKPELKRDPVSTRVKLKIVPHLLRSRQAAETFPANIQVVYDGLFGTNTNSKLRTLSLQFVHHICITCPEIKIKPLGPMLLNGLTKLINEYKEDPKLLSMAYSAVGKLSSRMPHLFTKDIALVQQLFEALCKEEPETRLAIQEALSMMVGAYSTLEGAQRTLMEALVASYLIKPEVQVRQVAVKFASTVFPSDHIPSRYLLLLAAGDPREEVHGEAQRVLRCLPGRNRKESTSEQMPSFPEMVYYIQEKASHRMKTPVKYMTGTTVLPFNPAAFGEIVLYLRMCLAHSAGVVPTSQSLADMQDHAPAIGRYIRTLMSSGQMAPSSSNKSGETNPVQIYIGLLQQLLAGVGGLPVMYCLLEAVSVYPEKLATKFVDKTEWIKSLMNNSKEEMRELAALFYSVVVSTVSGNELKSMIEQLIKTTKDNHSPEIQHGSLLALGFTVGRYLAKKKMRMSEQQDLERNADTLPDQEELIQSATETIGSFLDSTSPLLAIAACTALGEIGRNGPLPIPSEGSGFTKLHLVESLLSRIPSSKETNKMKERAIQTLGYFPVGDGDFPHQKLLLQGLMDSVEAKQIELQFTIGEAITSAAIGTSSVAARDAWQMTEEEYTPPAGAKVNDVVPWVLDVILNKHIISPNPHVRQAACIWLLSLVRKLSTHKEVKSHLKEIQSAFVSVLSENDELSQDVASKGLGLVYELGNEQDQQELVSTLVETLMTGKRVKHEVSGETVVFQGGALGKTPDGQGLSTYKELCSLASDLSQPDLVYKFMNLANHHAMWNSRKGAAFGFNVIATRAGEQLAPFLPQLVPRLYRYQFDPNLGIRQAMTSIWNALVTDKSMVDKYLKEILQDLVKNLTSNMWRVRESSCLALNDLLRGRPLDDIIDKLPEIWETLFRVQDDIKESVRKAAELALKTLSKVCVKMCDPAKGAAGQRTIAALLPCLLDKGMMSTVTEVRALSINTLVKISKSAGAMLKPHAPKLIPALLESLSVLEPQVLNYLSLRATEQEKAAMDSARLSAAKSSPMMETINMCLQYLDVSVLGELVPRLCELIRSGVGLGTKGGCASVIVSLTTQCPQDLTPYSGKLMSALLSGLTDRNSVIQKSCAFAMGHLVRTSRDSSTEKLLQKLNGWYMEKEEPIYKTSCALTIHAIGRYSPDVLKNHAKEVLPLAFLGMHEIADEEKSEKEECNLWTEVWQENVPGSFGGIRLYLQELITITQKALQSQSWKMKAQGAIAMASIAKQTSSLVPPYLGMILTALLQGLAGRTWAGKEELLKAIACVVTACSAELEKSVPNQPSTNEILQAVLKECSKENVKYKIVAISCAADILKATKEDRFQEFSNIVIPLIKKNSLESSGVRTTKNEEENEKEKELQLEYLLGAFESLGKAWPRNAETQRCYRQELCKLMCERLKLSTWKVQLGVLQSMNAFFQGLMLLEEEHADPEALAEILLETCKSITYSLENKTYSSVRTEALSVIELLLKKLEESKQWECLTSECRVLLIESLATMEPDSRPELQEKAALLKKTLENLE
# UniProt Q9BV68: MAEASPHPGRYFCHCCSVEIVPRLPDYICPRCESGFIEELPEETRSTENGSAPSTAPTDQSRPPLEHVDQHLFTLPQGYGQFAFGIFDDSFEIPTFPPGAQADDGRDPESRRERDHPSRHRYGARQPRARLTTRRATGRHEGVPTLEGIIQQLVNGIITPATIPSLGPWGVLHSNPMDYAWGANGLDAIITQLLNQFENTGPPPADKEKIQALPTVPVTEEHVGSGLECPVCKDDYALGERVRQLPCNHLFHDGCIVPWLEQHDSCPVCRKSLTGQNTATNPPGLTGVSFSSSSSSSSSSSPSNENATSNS
# UniProt Q99807: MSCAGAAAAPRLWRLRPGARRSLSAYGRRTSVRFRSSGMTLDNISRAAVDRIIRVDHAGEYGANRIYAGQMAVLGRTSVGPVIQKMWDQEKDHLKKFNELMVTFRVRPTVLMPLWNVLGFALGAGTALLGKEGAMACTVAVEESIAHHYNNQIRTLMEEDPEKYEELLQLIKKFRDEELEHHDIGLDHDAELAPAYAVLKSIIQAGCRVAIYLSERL
# UniProt Q9Y2K7: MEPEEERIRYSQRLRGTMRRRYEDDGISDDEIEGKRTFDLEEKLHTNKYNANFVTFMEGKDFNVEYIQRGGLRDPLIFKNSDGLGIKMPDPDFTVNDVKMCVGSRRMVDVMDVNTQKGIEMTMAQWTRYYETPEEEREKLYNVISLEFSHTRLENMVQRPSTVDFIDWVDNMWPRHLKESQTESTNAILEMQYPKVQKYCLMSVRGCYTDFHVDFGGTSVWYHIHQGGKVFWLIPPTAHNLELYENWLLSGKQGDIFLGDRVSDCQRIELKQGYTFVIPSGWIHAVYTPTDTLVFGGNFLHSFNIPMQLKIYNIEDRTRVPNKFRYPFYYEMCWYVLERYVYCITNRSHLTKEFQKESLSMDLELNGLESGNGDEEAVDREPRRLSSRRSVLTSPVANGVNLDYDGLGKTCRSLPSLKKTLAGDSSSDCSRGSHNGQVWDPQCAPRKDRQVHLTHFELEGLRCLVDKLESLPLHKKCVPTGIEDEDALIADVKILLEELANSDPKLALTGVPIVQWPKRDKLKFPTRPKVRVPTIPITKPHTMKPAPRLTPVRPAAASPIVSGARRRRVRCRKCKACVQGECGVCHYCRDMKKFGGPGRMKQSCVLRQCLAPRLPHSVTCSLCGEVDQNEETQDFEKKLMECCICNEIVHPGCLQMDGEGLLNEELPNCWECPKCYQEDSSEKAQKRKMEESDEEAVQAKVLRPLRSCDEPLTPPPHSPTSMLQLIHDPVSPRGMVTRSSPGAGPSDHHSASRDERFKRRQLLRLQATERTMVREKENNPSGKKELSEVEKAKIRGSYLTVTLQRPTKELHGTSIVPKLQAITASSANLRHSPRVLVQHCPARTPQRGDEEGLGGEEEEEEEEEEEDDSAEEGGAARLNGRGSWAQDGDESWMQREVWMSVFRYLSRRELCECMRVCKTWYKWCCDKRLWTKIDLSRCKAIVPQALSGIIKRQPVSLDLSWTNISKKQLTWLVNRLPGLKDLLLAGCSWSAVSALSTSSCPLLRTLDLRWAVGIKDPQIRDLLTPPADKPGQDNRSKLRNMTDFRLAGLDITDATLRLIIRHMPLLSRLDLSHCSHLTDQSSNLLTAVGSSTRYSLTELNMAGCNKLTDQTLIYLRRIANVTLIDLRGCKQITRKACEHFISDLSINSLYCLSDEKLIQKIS
# UniProt P63027, whole entry, looked up: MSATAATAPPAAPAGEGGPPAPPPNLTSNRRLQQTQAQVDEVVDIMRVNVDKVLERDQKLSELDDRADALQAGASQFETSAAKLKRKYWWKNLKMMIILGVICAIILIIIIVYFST
# UniProt Q9UPN4: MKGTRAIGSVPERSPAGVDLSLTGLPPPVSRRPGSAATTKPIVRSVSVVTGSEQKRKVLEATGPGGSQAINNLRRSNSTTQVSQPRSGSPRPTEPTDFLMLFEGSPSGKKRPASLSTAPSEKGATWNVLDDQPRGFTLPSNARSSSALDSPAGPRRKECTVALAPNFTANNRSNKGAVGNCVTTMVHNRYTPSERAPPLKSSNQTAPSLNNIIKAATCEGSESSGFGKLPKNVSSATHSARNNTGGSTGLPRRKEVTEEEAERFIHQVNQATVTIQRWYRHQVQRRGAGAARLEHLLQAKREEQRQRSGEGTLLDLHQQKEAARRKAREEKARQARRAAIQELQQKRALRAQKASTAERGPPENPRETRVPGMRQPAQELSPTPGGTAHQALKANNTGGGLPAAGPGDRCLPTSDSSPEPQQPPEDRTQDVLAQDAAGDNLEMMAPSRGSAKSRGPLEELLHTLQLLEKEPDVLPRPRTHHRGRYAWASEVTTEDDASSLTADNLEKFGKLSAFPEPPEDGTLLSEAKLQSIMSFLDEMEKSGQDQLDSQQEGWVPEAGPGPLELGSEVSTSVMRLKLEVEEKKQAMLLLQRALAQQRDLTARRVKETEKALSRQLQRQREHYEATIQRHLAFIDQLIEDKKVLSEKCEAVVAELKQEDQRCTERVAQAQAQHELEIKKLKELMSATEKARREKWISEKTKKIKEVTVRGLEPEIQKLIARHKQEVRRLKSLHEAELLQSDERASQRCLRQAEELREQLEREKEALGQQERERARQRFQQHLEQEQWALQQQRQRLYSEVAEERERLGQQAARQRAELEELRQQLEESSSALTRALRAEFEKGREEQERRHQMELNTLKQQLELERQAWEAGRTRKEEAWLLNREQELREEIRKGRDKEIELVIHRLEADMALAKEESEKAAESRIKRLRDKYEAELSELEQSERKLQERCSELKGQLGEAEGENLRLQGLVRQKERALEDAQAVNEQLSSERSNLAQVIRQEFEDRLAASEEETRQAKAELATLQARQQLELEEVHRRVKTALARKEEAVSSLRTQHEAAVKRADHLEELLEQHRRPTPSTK
# UniProt Q9BTW9: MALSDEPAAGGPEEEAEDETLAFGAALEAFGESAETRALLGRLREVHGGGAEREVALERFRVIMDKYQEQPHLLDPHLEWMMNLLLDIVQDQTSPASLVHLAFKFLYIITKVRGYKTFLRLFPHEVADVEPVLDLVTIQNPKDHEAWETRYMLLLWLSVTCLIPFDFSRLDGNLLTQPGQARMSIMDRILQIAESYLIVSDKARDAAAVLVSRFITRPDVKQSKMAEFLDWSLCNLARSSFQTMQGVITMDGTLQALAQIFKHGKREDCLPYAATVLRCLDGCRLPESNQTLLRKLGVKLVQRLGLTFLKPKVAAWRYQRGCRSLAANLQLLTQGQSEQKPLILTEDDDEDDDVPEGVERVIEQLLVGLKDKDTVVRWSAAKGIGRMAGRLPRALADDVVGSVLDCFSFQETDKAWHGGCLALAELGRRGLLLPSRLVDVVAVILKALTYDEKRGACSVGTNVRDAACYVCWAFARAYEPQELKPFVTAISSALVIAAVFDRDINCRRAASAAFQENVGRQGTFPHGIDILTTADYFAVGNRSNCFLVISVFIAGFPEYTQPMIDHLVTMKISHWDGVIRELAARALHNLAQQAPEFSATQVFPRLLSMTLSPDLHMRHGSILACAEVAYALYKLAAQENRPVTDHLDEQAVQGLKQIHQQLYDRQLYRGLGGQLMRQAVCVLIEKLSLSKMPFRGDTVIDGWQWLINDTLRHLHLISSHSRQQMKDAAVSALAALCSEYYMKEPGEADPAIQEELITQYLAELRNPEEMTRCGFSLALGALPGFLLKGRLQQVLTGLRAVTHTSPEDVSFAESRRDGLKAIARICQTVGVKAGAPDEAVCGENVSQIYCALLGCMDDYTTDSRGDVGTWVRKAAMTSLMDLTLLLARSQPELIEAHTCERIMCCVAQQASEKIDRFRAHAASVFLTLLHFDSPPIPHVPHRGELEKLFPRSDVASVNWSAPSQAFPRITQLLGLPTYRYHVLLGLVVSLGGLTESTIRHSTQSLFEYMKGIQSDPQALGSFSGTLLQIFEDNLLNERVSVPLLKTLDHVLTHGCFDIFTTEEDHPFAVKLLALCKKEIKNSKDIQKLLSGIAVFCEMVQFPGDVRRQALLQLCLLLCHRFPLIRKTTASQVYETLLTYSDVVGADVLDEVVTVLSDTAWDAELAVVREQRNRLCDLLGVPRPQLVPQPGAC
# UniProt Q02978: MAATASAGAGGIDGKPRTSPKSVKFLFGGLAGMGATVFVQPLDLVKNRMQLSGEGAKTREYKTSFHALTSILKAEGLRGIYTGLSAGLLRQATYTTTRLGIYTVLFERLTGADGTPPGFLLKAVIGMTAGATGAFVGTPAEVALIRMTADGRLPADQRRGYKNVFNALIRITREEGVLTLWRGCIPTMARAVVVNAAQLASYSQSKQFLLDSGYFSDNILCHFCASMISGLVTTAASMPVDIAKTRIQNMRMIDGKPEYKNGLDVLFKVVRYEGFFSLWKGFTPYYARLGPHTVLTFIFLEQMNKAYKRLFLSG
# ± gives the standard deviation of the averaged measurements. The list shows a part of the results, in another mix than the full data.
# Compound: Nc1ncnc2c1ncn2[C@@H]1O[C@H](COP(=O)(O)OP(=O)(O)NP(=O)(O)O)[C@@H](O)[C@H]1O [adenylyl imidodiphosphate]
# Experiment: NP40-soluble protein abundance relative to vehicle (solubility fold change) (ratio); higher = more soluble protein in presence of AMP-PNP
# Method in brief: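 Across three independent experiments, values are fold changes against the detergent-processed vehicle for each replicate, based on vsn-normalised intensities. The samples were Jurkat crude lysate treated with eight concentrations (0.1 to 10 mM) for 10 min at room temperature and then 3 min at 37 °C. Lysate was solubilised with 0.8% NP40 and benzonase, ultracentrifuged, and the supernatant analysed by TMT-labelled LC-MS/MS.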
Target,NP40-soluble protein abundance (concentration: 1mM),NP40-soluble protein abundance (concentration: 2mM),NP40-soluble protein abundance (concentration: 4mM),NP40-soluble protein abundance (concentration: 6mM),NP40-soluble protein abundance (concentration: 8mM),NP40-soluble protein abundance (concentration: 10mM)
J3KP26 and related entries (UniProt Q86W74),1.03 ± 0.02,1.006 ± 0.01,0.9795 ± 0.0078,1 ± 0.046,0.983 ± 0.031,0.979 ± 0.039
I3L4I4 and related entries (UniProt O75674),1 ± 0.03,1.02 ± 0.013,1.01 ± 0.038,0.994 ± 0.015,0.981 ± 0.047,0.993 ± 0.043
J3KN16 and related entries (UniProt Q5VYK3+J3KN16),1 ± 0.014,0.98 ± 0.019,1.01 ± 0.026,0.963 ± 0.022,0.974 ± 0.015,0.991 ± 0.023
H7C285 and related entries (UniProt O95858),0.97 ± 0.044,0.969 ± 0.018,0.9717 ± 0.0056,0.998 ± 0.032,0.983 ± 0.033,0.963 ± 0.021
H0Y4B0 and related entries (UniProt O43414),1.02 ± 0.035,1 ± 0.021,1.06 ± 0.087,1.1 ± 0.15,1.1 ± 0.1,1.12 ± 0.13
H7BYY1 and related entries (UniProt P09493),1.14 ± 0.055,1.23 ± 0.12,1.17 ± 0.11,1.22 ± 0.18,1.21 ± 0.093,1.06 ± 0.061
J3KS22 and related entries (UniProt Q7Z4W1),0.994 ± 0.046,0.944 ± 0.013,1.01 ± 0.062,1.09 ± 0.12,1.08 ± 0.081,1.08 ± 0.078
G3XAJ6 and related entries (UniProt Q14699),0.987 ± 0.012,1.03 ± 0.045,1.03 ± 0.028,0.981 ± 0.023,0.954 ± 0.029,0.984 ± 0.036
K7EIY6 and related entries (UniProt Q9BV68),1.02 ± 0.03,1.06 ± 0.024,1 ± 0.041,1.01 ± 0.024,0.968 ± 0.016,0.975 ± 0.017
H0Y2S9 and related entries (UniProt Q6WCQ1),1.02 ± 0.012,1.03 ± 0.026,1.011 ± 0.0086,1.008 ± 0.0032,1.04 ± 0.034,1.04 ± 0.052
H0YBR0 and related entries (UniProt Q96Q05),1.09 ± 0.24,0.939 ± 0.053,0.968 ± 0.027,0.909 ± 0.011,0.952 ± 0.024,0.944 ± 0.031
H3BP28 and related entries (UniProt Q99807),0.971 ± 0.054,0.962 ± 0.038,0.947 ± 0.04,0.972 ± 0.071,0.98 ± 0.037,0.959 ± 0.044
G5E9A6 and related entries (UniProt P51784),0.984 ± 0.033,0.892 ± 0.11,0.96 ± 0.0093,0.933 ± 0.0096,0.964 ± 0.013,0.914 ± 0.02
I3VM54 and related entries (UniProt Q9Y2K7),1.02 ± 0.016,1.08 ± 0.045,1.17 ± 0.037,1.26 ± 0.12,1.31 ± 0.11,1.43 ± 0.17
H3BVD9 and related entries (UniProt O43278),1.05 ± 0.027,1.05 ± 0.019,1.02 ± 0.016,1 ± 0.028,0.997 ± 0.015,1.018 ± 0.0079
J3QRU4 and related entries (UniProt P63027+L7N2F9+J3QRU4),1.01 ± 0.049,1.01 ± 0.062,0.969 ± 0.054,0.968 ± 0.038,0.959 ± 0.03,0.945 ± 0.022
G3V4X1 and related entries (UniProt P62191),0.942 ± 0.045,0.906 ± 0.049,0.888 ± 0.079,0.896 ± 0.1,0.882 ± 0.1,0.89 ± 0.12
J3KTA1 and related entries (UniProt Q96IG2),0.993 ± 0.029,0.976 ± 0.034,1.01 ± 0.03,1 ± 0.023,1.02 ± 0.045,1 ± 0.082
I3L2J8 and related entries (UniProt Q9UPN4),0.999 ± 0.013,1.02 ± 0.033,1.03 ± 0.015,1.01 ± 0.023,1.02 ± 0.048,1.01 ± 0.056
H3BPJ9 and related entries (UniProt O96000),0.93 ± 0.047,1.01 ± 0.029,0.915 ± 0.042,0.882 ± 0.027,0.884 ± 0.028,0.853 ± 0.032
H7BZB3 and related entries (UniProt P27708),0.938 ± 0.072,0.854 ± 0.16,0.883 ± 0.11,0.894 ± 0.092,0.886 ± 0.077,0.851 ± 0.12
I3L1A3 and related entries (UniProt O76021),1.08 ± 0.031,1.12 ± 0.014,1.1 ± 0.018,1.121 ± 0.0097,1.14 ± 0.046,1.23 ± 0.021
J3KR97 and related entries (UniProt Q9BTW9),0.933 ± 0.02,0.869 ± 0.099,0.945 ± 0.029,0.957 ± 0.077,0.984 ± 0.035,0.941 ± 0.016
H7C2F9 and related entries (UniProt Q15032),1.02 ± 0.035,1.04 ± 0.028,1.04 ± 0.021,0.997 ± 0.029,0.9737 ± 0.0079,1.022 ± 0.006
H3BSW6 and related entries (UniProt Q2VPK5),0.978 ± 0.019,0.958 ± 0.036,0.976 ± 0.013,0.972 ± 0.011,0.991 ± 0.014,0.982 ± 0.017
I3L1P8 and related entries (UniProt Q02978),0.972 ± 0.01,0.914 ± 0.035,0.9876 ± 0.0019,0.974 ± 0.043,1.02 ± 0.018,0.97 ± 0.014
J3QT87 and related entries (UniProt Q96SW2),0.967 ± 0.04,0.942 ± 0.058,0.963 ± 0.032,0.946 ± 0.057,1.01 ± 0.04,0.956 ± 0.034

# A stretch taken from the entries so far:
Target,NP40-soluble protein abundance (concentration: 1mM),NP40-soluble protein abundance (concentration: 2mM),NP40-soluble protein abundance (concentration: 4mM),NP40-soluble protein abundance (concentration: 6mM),NP40-soluble protein abundance (concentration: 8mM),NP40-soluble protein abundance (concentration: 10mM)
H7BYY1 and related entries (UniProt P09493),1.14 ± 0.055,1.23 ± 0.12,1.17 ± 0.11,1.22 ± 0.18,1.21 ± 0.093,1.06 ± 0.061
J3KS22 and related entries (UniProt Q7Z4W1),0.994 ± 0.046,0.944 ± 0.013,1.01 ± 0.062,1.09 ± 0.12,1.08 ± 0.081,1.08 ± 0.078
G3XAJ6 and related entries (UniProt Q14699),0.987 ± 0.012,1.03 ± 0.045,1.03 ± 0.028,0.981 ± 0.023,0.954 ± 0.029,0.984 ± 0.036
K7EIY6 and related entries (UniProt Q9BV68),1.02 ± 0.03,1.06 ± 0.024,1 ± 0.041,1.01 ± 0.024,0.968 ± 0.016,0.975 ± 0.017
H0Y2S9 and related entries (UniProt Q6WCQ1),1.02 ± 0.012,1.03 ± 0.026,1.011 ± 0.0086,1.008 ± 0.0032,1.04 ± 0.034,1.04 ± 0.052
H0YBR0 and related entries (UniProt Q96Q05),1.09 ± 0.24,0.939 ± 0.053,0.968 ± 0.027,0.909 ± 0.011,0.952 ± 0.024,0.944 ± 0.031
H3BP28 and related entries (UniProt Q99807),0.971 ± 0.054,0.962 ± 0.038,0.947 ± 0.04,0.972 ± 0.071,0.98 ± 0.037,0.959 ± 0.044
